Measurements reported in US20110070246A1 (F HOFFMANN LAROCHE, published 2011).
No constants are given. Whether binding was seen depends on the method and setting. Some binding calls cover weakened binding; strength is not graded here.

Tests used:
[1] = target: T1, Soluble extracellular domain (ECD) of human CDCP1 (human) (UniProt Q9H5V8); assay: Biacore competition, competitor immobilized CUB4
T1 sequence: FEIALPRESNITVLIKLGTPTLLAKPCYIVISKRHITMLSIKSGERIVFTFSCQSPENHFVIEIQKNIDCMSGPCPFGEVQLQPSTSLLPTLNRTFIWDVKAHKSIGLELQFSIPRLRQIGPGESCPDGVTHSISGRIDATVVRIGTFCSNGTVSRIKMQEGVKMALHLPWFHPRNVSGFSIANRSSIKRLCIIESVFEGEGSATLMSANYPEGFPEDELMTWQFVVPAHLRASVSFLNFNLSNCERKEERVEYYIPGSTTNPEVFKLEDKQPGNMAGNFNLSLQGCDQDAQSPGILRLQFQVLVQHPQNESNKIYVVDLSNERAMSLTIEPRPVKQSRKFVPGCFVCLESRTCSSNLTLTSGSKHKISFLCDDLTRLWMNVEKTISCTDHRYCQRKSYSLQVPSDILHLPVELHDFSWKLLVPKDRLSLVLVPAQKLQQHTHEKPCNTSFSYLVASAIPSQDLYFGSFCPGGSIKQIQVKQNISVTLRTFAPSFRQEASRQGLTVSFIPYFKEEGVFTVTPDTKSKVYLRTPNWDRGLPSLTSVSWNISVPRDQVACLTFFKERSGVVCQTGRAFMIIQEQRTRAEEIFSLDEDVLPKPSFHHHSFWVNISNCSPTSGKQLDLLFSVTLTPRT

[2] = target: T1, Soluble extracellular domain (ECD) of human CDCP1 (human); assay: Biacore sensorgram, immobilized CUB4, ECD of CDCP1
[3] = target: T1, Soluble extracellular domain (ECD) of human CDCP1 (human); assay: ELISA, SBP-tagged construct captured on streptavidin plate
[4] = target: T1, Soluble extracellular domain (ECD) of human CDCP1 (human); assay: Biacore sandwich on antigen captured by Mab CUB1 or Mab CUB3 (data not shown)

binding [1]: binds
binding [2]: binds
binding [3]: binds
binding [4]: binds
B1: Mab CDCP1-015 (antibody, V domains shown)
VH: QVHLKQSGPGLVQPSQSLSITCTVSGFSLTNFGLHWVRQSPGKGLEWLGVIWSGGVTDYNAAFISRLSISKDNSKSQVFFKMNSLQPNDTAIYYCARNYDHDYSMDYWGQGISVSVSS
VL: DVVLTQTPLSLPVIIGDQASISCKSTKSLLNSAGFTYLGWYLQKPGQSPQLLIYLVSNRFSGVPDRFSGSGSGTDFTLKISRVEAEDLGVYFCFQSSYLPLTFGSGTKLEIK
notes: also called CDCP1-0015; Murine CDCP1-015
